Measurements: PubChem BioAssay AID272 (DTP/NCI, 2004)
The list does not hold the whole screen: it is rich in T/C values a quarter to a half above the control, in often repeated tests (any T/C) and in doses without a T/C. Other doses and runs of a compound stand elsewhere. T/C gives the treated animals as a percentage of the vehicle group. Schedule codes are those of the source, taken here to give the interval after Q, in days (D) or hours (H), and the number of doses after X. Some entries give survivors of the animals treated and no T/C: the source files T/C as zero there, which appears to mark a toxic dose or a test without result, not a measured value. Some doses without a T/C left all or most animals alive at the check, yet need not have been tolerated: the source hardly ever lists a survival T/C far under the control, and the zero likely stands for such cases as well. Counts of survivors are from the toxicity check (mostly the fifth day) where no day follows; animals may have died later. Marks such as (2×) stand for listed records that agree. Some entries were tested several times; their values stand side by side, smallest first. Where survival is the endpoint, the PubChem record calls one and a half times the control and up active, and a quarter to a half above the control has no call in these data; cut-offs in other NCI protocols can differ. Some T/C values carry the count of animals alive at the toxicity check (mostly the fifth day); where none is given, no animal had died by that day.

Test system: Lewis lung carcinoma i.m., BDF1 mice, T/C %
Experiment: NCI In Vivo Anticancer Drug Screen. Data for tumor model Lewis Lung Carcinoma (intramuscular) in B6D2F1 (BDF1) mice
How it was run: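 Value is the ratio of a treated-group measurement (T) to the matching vehicle-control measurement (C), using either survival or tumour size in mice bearing transplanted tumours.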

[1] = T/C endpoint: median survival time, dose: 20.0 mg/kg/injection, schedule: Q01DX011 (ip), vehicle: saline, higher T/C = longer survival
[2] = T/C endpoint: median survival time, dose: 100.0 mg/kg/injection, schedule: Q01DX011 (ip), vehicle: other, higher T/C = longer survival
[3] = T/C endpoint: median survival time, dose: 200.0 mg/kg/injection, schedule: Q01DX011 (ip), vehicle: other, higher T/C = longer survival
[4] = T/C endpoint: median survival time, dose: 150.0 mg/kg/injection, schedule: Q01DX011 (ip), vehicle: saline, higher T/C = longer survival
[5] = T/C endpoint: median survival time, dose: 300.0 mg/kg/injection, schedule: Q01DX011 (ip), vehicle: saline, higher T/C = longer survival
[6] = T/C endpoint: median survival time, dose: 10.0 mg/kg/injection, schedule: Q01DX011 (ip), vehicle: saline, higher T/C = longer survival
[7] = T/C endpoint: median survival time, dose: 50.0 mg/kg/injection, schedule: Q01DX011 (ip), vehicle: saline, higher T/C = longer survival
[8] = T/C endpoint: median survival time, dose: 100.0 mg/kg/injection, schedule: Q01DX011 (ip), vehicle: saline with Tween-80, higher T/C = longer survival
[9] = T/C endpoint: median survival time, dose: 250.0 mg/kg/injection, schedule: Q01DX011 (ip), vehicle: saline, higher T/C = longer survival
[10] = T/C endpoint: median survival time, dose: 50.0 mg/kg/injection, schedule: Q01DX011 (ip), vehicle: other, higher T/C = longer survival

In the case of `Cc1c2c(ccc3ccccc32)c[n+]2ccccc12`, the survivor count [1] is reported as 0 of 8.

For `COc1cc(C[C@H]2c3cc(OC)c(OC)cc3CCN2C)c(Oc2cc3c(cc2OC)-c2c(OC)c(OC)cc4c2[C@H](C3)N(C)CC4)cc1OC`, the survivor count (T/C endpoint: mean tumor weight, dose: 100.0 mg/kg/injection, schedule: Q01DX011 (ip), vehicle: other, higher T/C = larger tumour) was 3 of 10, the survivor count [2] was 3 of 10 and the survivor count [3] was 0 of 10.

With `O=C[C@@H](CO)O[C@H](C=O)n1cnc2c(=O)[nH]cnc21` the survivor count (T/C endpoint: mean tumor weight, dose: 180.0 mg/kg/injection, schedule: Q01DX011 (ip), vehicle: saline, higher T/C = larger tumour) was 5 of 8, the T/C (T/C endpoint: median survival time, dose: 37.5 mg/kg/injection, schedule: Q01DX011 (ip), vehicle: saline, higher T/C = longer survival) was 132 % of control and the T/C [4] was 143 % of control. The survivor count (T/C endpoint: median survival time, dose: 180.0 mg/kg/injection, schedule: Q01DX011 (ip), vehicle: saline, higher T/C = longer survival) was 5 of 8 and the survivor count [5] was 0 of 8 (2×).

In the case of `CC1OC(O[C@@H]2C=C3CC[C@@H]4[C@H](CC[C@]5(C)[C@@H](c6ccc(=O)oc6)CC[C@]45O)[C@@]3(C)CC2)C(O)C(O)C1O` (stereo partly drawn), the T/C (T/C endpoint: median survival time, dose: 0.62 mg/kg/injection, schedule: Q01DX011 (ip), vehicle: steroid suspending solution, higher T/C = longer survival) is reported as 141 % of control [6 of 8 alive].

For `O=c1[nH]c(=O)n(C2CC(O)C(CO)O2)cc1F` (stereo not drawn), the survivor count (T/C endpoint: mean tumor weight, dose: 40.0 mg/kg/injection, schedule: Q01DX011 (ip), vehicle: other, higher T/C = larger tumour) was 5 of 8, the T/C (T/C endpoint: median survival time, dose: 10.0 mg/kg/injection, schedule: Q01DX009 (ip), vehicle: saline, evaluated on day 12, higher T/C = longer survival) was 129 % of control and the T/C (T/C endpoint: median survival time, dose: 10.0 mg/kg/injection, schedule: Q01DX009 (ip), vehicle: saline, evaluated on day 41, higher T/C = longer survival) was 133 % of control. For the same molecule, the survivor count [6] was 7 of 8, the T/C (T/C endpoint: median survival time, dose: 20.0 mg/kg/injection, schedule: Q01DX009 (ip), vehicle: saline, evaluated on day 12, higher T/C = longer survival) was 134 % of control and the T/C (T/C endpoint: median survival time, dose: 20.0 mg/kg/injection, schedule: Q01DX009 (ip), vehicle: saline, evaluated on day 41, higher T/C = longer survival) was 126 % of control. The survivor count (T/C endpoint: median survival time, dose: 40.0 mg/kg/injection, schedule: Q01DX011 (ip), vehicle: other, higher T/C = longer survival) was 5 of 8, the T/C (T/C endpoint: median survival time, dose: 40.0 mg/kg/injection, schedule: Q01DX011 (ip), vehicle: saline, higher T/C = longer survival) was 143 % of control and the T/C [7] was 133 % of control. The T/C (T/C endpoint: median survival time, dose: 52.0 mg/kg/injection, schedule: Q01DX007 (sc), vehicle: saline, evaluated on day 14, higher T/C = longer survival) was 134 % of control, the T/C (T/C endpoint: median survival time, dose: 52.0 mg/kg/injection, schedule: Q01DX007 (sc), vehicle: saline, evaluated on day 62, higher T/C = longer survival) was 134 % of control and the T/C (T/C endpoint: median survival time, dose: 80.0 mg/kg/injection, schedule: Q01DX009 (ip), vehicle: saline, higher T/C = longer survival) was 126 % of control. The T/C (T/C endpoint: median survival time, dose: 80.0 mg/kg/injection, schedule: Q01DX011 (ip), vehicle: other, higher T/C = longer survival) was 130 % of control [6 of 8 alive], the survivor count (T/C endpoint: median survival time, dose: 80.0 mg/kg/injection, schedule: Q01DX011 (ip), vehicle: saline, higher T/C = longer survival) was 5 of 8 and 8 of 8 and the survivor count (T/C endpoint: median survival time, dose: 100.0 mg/kg/injection, schedule: Q01DX009 (ip), vehicle: saline, higher T/C = longer survival) was 9 of 10. The T/C (T/C endpoint: median survival time, dose: 100.0 mg/kg/injection, schedule: Q01DX011 (ip), vehicle: saline, higher T/C = longer survival) was 142 % of control, the survivor count (T/C endpoint: median survival time, dose: 160.0 mg/kg/injection, schedule: Q01DX011 (ip), vehicle: other, higher T/C = longer survival) was 0 of 8 and the survivor count (T/C endpoint: median survival time, dose: 160.0 mg/kg/injection, schedule: Q01DX011 (ip), vehicle: saline, higher T/C = longer survival) was 0 of 8, 1 of 8, 3 of 8. For the same molecule, the survivor count (T/C endpoint: median survival time, dose: 160.0 mg/kg/injection, schedule: Q01DX011 (ip), vehicle: water, higher T/C = longer survival) was 2 of 8, the survivor count (T/C endpoint: median survival time, dose: 200.0 mg/kg/injection, schedule: Q01DX009 (ip), vehicle: saline, higher T/C = longer survival) was 10 of 10 and the survivor count (T/C endpoint: median survival time, dose: 320.0 mg/kg/injection, schedule: Q01DX011 (ip), vehicle: water, higher T/C = longer survival) was 0 of 8. The survivor count (T/C endpoint: median survival time, dose: 400.0 mg/kg/injection, schedule: Q01DX009 (ip), vehicle: saline, higher T/C = longer survival) was 9 of 10.

For `Cc1c(N)nc(C(CC(N)=O)NCC(N)C(N)=O)nc1C(=O)NC(C(=O)NC(C)C(O)C(C)C(=O)NC(C(=O)NCCc1nc(-c2nc(C(=O)NCCC[S+](C)C)cs2)cs1)C(C)O)C(OC1OC(CO)C(O)C(O)C1OC1OC(CO)C(O)C(OC(N)=O)C1O)c1cnc[nH]1` (stereo not drawn), the T/C (T/C endpoint: median survival time, dose: 2.3 mg/kg/injection, schedule: Q01DX011 (ip), vehicle: saline, higher T/C = longer survival) was 133 % of control, the T/C (T/C endpoint: median survival time, dose: 3.9 mg/kg/injection, schedule: Q01DX011 (ip), vehicle: saline, higher T/C = longer survival) was 141 % of control and the survivor count (T/C endpoint: median survival time, dose: 30.0 mg/kg/injection, schedule: Q01DX011 (ip), vehicle: saline, higher T/C = longer survival) was 3 of 8. The survivor count [7] was 0 of 8.

For `N[C@H](C(=O)O)[C@H]1ON=C(Cl)[C@@H]1O`, the survivor count (T/C endpoint: median survival time, dose: 32.0 mg/kg/injection, schedule: Q01DX013 (ip), vehicle: saline, higher T/C = longer survival) was 8 of 8, the survivor count (T/C endpoint: median survival time, dose: 64.0 mg/kg/injection, schedule: Q01DX013 (ip), vehicle: saline, higher T/C = longer survival) was 8 of 8 and the survivor count (T/C endpoint: median survival time, dose: 128.0 mg/kg/injection, schedule: Q01DX013 (ip), vehicle: saline, higher T/C = longer survival) was 8 of 8. The survivor count (T/C endpoint: median survival time, dose: 256.0 mg/kg/injection, schedule: Q01DX013 (ip), vehicle: saline, higher T/C = longer survival) was 8 of 8.

`Nc1nc(Cl)nc2c1ncn2C1OC(CO)C(O)C1O` (stereo not drawn) was tested, and the survivor count [8] was 6 of 8.

For `CN(C)C(=S)S`, the survivor count (T/C endpoint: mean tumor weight, dose: 250.0 mg/kg/injection, schedule: Q01DX011 (ip), vehicle: saline, higher T/C = larger tumour) was 4 of 8, the survivor count (T/C endpoint: mean tumor weight, dose: 500.0 mg/kg/injection, schedule: Q01DX011 (ip), vehicle: saline, higher T/C = larger tumour) was 3 of 8 and the survivor count (T/C endpoint: median survival time, dose: 125.0 mg/kg/injection, schedule: Q01DX011 (ip), vehicle: saline, higher T/C = longer survival) was 6 of 8. For the same molecule, the T/C [9] was 136 % of control [7 of 8 alive], the survivor count [9] was 4 of 8 and the survivor count (T/C endpoint: median survival time, dose: 500.0 mg/kg/injection, schedule: Q01DX011 (ip), vehicle: saline, higher T/C = longer survival) was 0 of 8 and 3 of 8.

With `Cc1nc(N)nc(N)c1-c1ccc(Cl)c(Cl)c1` the T/C (T/C endpoint: mean tumor weight, dose: 4.0 mg/kg/injection, schedule: Q04DX004 (ip), vehicle: saline, evaluated on day 20, higher T/C = larger tumour) was 127 % of control, the T/C (T/C endpoint: mean tumor weight, dose: 8.0 mg/kg/injection, schedule: Q04DX004 (ip), vehicle: saline, evaluated on day 20, higher T/C = larger tumour) was 128 % of control and the T/C (T/C endpoint: median survival time, dose: 6.0 mg/kg/injection, schedule: Q04DX004 (ip), vehicle: saline, higher T/C = longer survival) was 129 % of control.

With `Nc1nc2c(c(=O)[nH]1)NC(CCNc1ccc(C(=O)NC(CCC(=O)O)C(=O)O)cc1)CN2` (stereo not drawn) the survivor count (T/C endpoint: mean tumor weight (est.), dose: 200.0 mg/kg/injection, schedule: Q01DX011 (ip), vehicle: other, higher T/C = larger tumour) was 3 of 8, the survivor count (T/C endpoint: mean tumor weight, dose: 12.5 mg/kg/injection, schedule: Q01DX011 (ip), vehicle: other, higher T/C = larger tumour) was 5 of 8 and the survivor count (T/C endpoint: median survival time, dose: 3.13 mg/kg/injection, schedule: Q01DX011 (ip), vehicle: other, higher T/C = longer survival) was 7 of 8. For the same molecule, the T/C (T/C endpoint: median survival time, dose: 6.25 mg/kg/injection, schedule: Q01DX011 (ip), vehicle: other, higher T/C = longer survival) was 129 % of control [6 of 8 alive], the survivor count (T/C endpoint: median survival time, dose: 12.5 mg/kg/injection, schedule: Q01DX011 (ip), vehicle: other, higher T/C = longer survival) was 5 of 8 and the T/C (T/C endpoint: median survival time, dose: 25.0 mg/kg/injection, schedule: Q01DX011 (ip), vehicle: other, higher T/C = longer survival) was 140 % of control [7 of 8 alive]. For the same molecule, the T/C [10] was 132 % of control [7 of 8 alive], the survivor count [10] was 7 of 8 and the survivor count [2] was 6 of 8. For the same molecule, the survivor count [3] was 3 of 8.

In the case of `Cc1ccc2c(C)c3c(ccc4ccccc43)c[n+]2c1`, the survivor count (T/C endpoint: mean tumor weight (est.), dose: 10.0 mg/kg/injection, schedule: Q01DX011 (ip), vehicle: saline, higher T/C = larger tumour) is reported as 1 of 8, the survivor count [6] is reported as 1 of 8 and the survivor count [1] is reported as 0 of 8.

`O=c1[nH]cc(F)c(=O)n1C1OC(CO)C(O)C1O` (stereo not drawn) was tested, and the survivor count [4] was 8 of 8 and the survivor count [5] was 7 of 8.

In the case of `CC(=O)c1ccc(Oc2ccc(/C(C)=N\N=C(N)N)cc2)cc1`, the survivor count (T/C endpoint: median survival time, dose: 25.0 mg/kg/injection, schedule: Q01DX011 (ip), vehicle: saline with Tween-80, higher T/C = longer survival) is reported as 8 of 8, the survivor count (T/C endpoint: median survival time, dose: 50.0 mg/kg/injection, schedule: Q01DX011 (ip), vehicle: saline with Tween-80, higher T/C = longer survival) is reported as 0 of 8 and the survivor count [8] is reported as 0 of 8.
